From article PMC5910400
No constants are given. Whether binding was seen depends on the method and setting. For some assays here: Binding calls can cover weak binding; strength is not graded here. Tags and fused reporters may be left off the sequences shown.

The chains behind the UniProt entries cited, without tags or fusion partners. Where a name states a change or a piece, a line headed by the entry shows the natural chain unless it says otherwise.
UniProt Q99616: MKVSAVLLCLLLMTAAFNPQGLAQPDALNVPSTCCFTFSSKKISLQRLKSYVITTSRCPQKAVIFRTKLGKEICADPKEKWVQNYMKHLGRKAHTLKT
UniProt P78423: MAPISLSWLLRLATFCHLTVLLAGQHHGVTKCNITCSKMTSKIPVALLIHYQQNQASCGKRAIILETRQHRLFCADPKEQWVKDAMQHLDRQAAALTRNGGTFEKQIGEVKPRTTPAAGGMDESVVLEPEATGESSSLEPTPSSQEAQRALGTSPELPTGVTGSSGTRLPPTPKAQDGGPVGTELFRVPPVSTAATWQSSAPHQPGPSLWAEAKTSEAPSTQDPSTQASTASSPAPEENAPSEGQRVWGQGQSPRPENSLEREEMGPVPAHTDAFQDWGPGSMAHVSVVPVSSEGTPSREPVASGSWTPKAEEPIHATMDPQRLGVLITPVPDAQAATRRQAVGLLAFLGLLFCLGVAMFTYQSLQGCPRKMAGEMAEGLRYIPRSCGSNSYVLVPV

Experiments:
[1] = target: T1, P1243 (evasin from Amblyomma americanum), purified, C-terminal StrepII:8xHis tag (Amblyomma americanum); experiment: BLI; titration; evasin immobilised on the sensor through the C-terminal His tag; chemokine 300 nM to 0.4 nM (CXCL2: 600 nM to […]), at least five concentrations; non-interacting reference protein; one-site binding fit or steady state analysis; both purified
T1 sequence: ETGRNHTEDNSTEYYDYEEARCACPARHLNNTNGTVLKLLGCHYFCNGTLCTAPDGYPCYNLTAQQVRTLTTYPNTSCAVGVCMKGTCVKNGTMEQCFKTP

[2] = target: T2, P1156 (evasin from Ixodes ricinus), purified, C-terminal StrepII:His tag (Ixodes ricinus) (UniProt V5HBW0); experiment: BLI; cross-binding screen; His-tagged evasin immobilised on Ni-NTA biosensors (OctetRed); 300 nM chemokine; 30 °C; 10 mM Na2HPO4, 1.8 mM KH2PO4, 2.7 mM KCl, 500 mM NaCl, 0.1% BSA, 0.002% TWEEN-20, pH 7.4; single experiment; both purified
T2 sequence: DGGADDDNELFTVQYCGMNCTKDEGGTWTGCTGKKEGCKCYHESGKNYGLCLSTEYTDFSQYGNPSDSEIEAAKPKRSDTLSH

Row | Substance | binding [1] | binding [2]
1 | CCL13 (from UniProt Q99616) (ligand) | binds | 
2 | CX3CL1 (from UniProt P78423) (ligand) |  | no binding (tested: 300 nM)
